Among the data in patent US20260234255A1 are binding values, retold here.

In test [1] the target is rhesus monkey (Macaca mulatta) CD30 (rhesus monkey). As to the kind of experiment: flow cytometry, Expi293F cells transfected with mmCD30. A general note: Flow cytometry measures light scatter and fluorescence of single cells or particles in a stream.
Test [2] has the same target. Put plainly: flow cytometry, Expi293F cells transfected with rhesus monkey CD30.

Results are given in words; binding and its absence hold for the method and conditions named. Some binding calls cover weakened binding; strength is not graded here.

B1: IgG1-CD30-HRS-3-FEAR (antibody, V domains shown)
VH: QVQLQQSGAELARPGASVKMSCKASGYTFTTYTIHWVRQRPGHDLEWIGYINPSSGYSDYNQNFKGKTTLTADKSSNTAYMQLNSLTSEDSAVYYCARRADYGNYEYTWFAYWGQGTTVTVSS
VL: DIVMTQSPKFMSTSVGDRVTVTCKASQNVGTNVAWFQQKPGQSPKVLIYSASYRYSGVPDRFTGSGSGTDFTLTISNVQSEDLAEYFCQQYHTYPLTFGGGTKLEINR
Take B1: the binding entry in test [1] and in test [2] was “binds” each time.

B2: IgG1-CD30-T215-FEAR (antibody, V domains shown)
VH: QVTLKESGPGILQPSQTLSLTCSFSGFSLSVSGMGVSWIRQPSGKGLEWLAHIHWDDDRRSNPSLRSRLTISKDTSNNQVFLKITSVDTADTATYYCARRPDLYGNYFFFDFWGQGTTLTVSS
VL: DIVMTQSQKFMSTSVGDRVSVTCKASQNVFTNVAWYQQKLGQSPKPLIYSASYRYSGVPDRFTGSGSGTDFTLTISDVQSEDLAEYFCQQYNSYPVTFGAGTKLELKR
As for B2, the binding result in test [1] and in test [2] was “binds” in each case.

B3: IgG1-CD30-HeFi-I-FEAR (antibody, V domains shown)
VH: EVKLVESGGGLVQPGGSLRLSCATSGFTFSDYYMNWVRQPPGKALEWLGFIRNKANGYTTEFSASVMGRFTISRDDSQSILYLQMNTLRAEDSATYYCARDPPYGNPHYYAMDYWGQGTSVTVSS
VL: DIVLTQSPASLAVSLGQRATISCRASKSVSASGYNYMHWYQQKAGQPPKLLIHLASNLESGVPARFSGSGSGTDFTLNIHPVEEEDASTYYCQHSGELPFTFGSGTKLEIKR
As for B3, the values for the binding entry in test [1] and in test [2] were “no binding (tested: 0.005 to 10 µg/mL)” and “no binding (tested: 10 µg/mL)”, respectively.
